# Source: the supplement of paper PMC8728848
# The other results are listed elsewhere or left out.
# Legend:
# Assay in all cases: glycan array binding signal (z-score within array); higher = stronger binding
# Settings in all cases: glycan notation: IUPAC condensed, linker removed
# [1] = target: GalNAc(b1-6)GalNAc
# Method in brief: (§1)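 The binding signal is a Z-score computed within each array and averaged over linkers. Arrays of the same protein sequence at different concentrations or buffers were also averaged together. Data originate from 3228 arrays in the Consortium for Functional Glycomics database, kept only where the protein sequence was available.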
# [2] = target: Glc(a1-4)Glc
# Method in brief: as §1
# [3] = target: Glc(a1-4)Glc(a1-4)Glc(a1-4)Glc
# Method in brief: as §1
# [4] = target: Glc(a1-6)Glc(a1-6)Glc
# Method in brief: as §1
# [5] = target: Glc(a1-6)Glc(a1-6)Glc(a1-6)Glc
# Method in brief: as §1
# [6] = target: Glc(b1-4)Glc
# Method in brief: as §1
# [7] = target: Glc(b1-6)Glc
# Method in brief: as §1
# [8] = target: GlcA(b1-3)Gal
# Method in brief: as §1
# [9] = target: GlcA(b1-3)GlcNAc
# Method in brief: as §1
# [10] = target: GlcA(b1-6)Gal
# Method in brief: as §1
# [11] = target: GlcNAc(a1-3)Gal(b1-4)GlcNAc
# Method in brief: as §1
# [12] = target: GlcNAc(a1-4)Gal(b1-3)GlcNAc
# Method in brief: as §1
# [13] = target: GlcNAc(a1-4)Gal(b1-4)GalNAc
# Method in brief: as §1
# [14] = target: GlcNAc(a1-4)Gal(b1-4)GlcNAc
# Method in brief: as §1
# [15] = target: GlcNAc(a1-4)Gal(b1-4)GlcNAc(b1-3)Gal(b1-4)Glc
# Method in brief: as §1
# [16] = target: GlcNAc(a1-4)Gal(b1-4)GlcNAc(b1-3)Gal(b1-4)GlcNAc
# Method in brief: as §1
# [17] = target: GlcNAc(a1-4)Gal(b1-4)GlcNAc(b1-3)Gal(b1-4)GlcNAc(b1-3)Gal(b1-4)GlcNAc
# Method in brief: as §1
# [18] = target: GlcNAc(a1-4)Gal(b1-4)GlcNAc(b1-3)Gal(b1-4)[Fuc(a1-3)]GlcNAc(b1-3)Gal(b1-4)[Fuc(a1-3)]GlcNAc
# Method in brief: as §1
# [19] = target: GlcNAc(a1-6)Gal(b1-4)GlcNAc
# Method in brief: as §1
# [20] = target: GlcNAc(b1-2)Gal(b1-3)GalNAc
# Method in brief: as §1
# [21] = target: GlcNAc(b1-2)Man(a1-3)[GlcNAc(b1-2)Man(a1-6)]Man(b1-4)GlcNAc(b1-4)GlcNAc
# Method in brief: as §1
# [22] = target: GlcNAc(b1-2)Man(a1-3)[GlcNAc(b1-2)Man(a1-6)]Man(b1-4)GlcNAc(b1-4)[Fuc(a1-6)]GlcNAc
# Method in brief: as §1
# [23] = target: GlcNAc(b1-2)Man(a1-3)[GlcNAc(b1-4)][GlcNAc(b1-2)Man(a1-6)]Man(b1-4)GlcNAc(b1-4)GlcNAc
# Method in brief: as §1
# [24] = target: GlcNAc(b1-2)[GlcNAc(b1-4)]Man(a1-3)[GlcNAc(b1-2)Man(a1-6)]Man(b1-4)GlcNAc(b1-4)GlcNAc
# Method in brief: as §1
# [25] = target: GlcNAc(b1-2)[GlcNAc(b1-4)]Man(a1-3)[GlcNAc(b1-4)][GlcNAc(b1-2)Man(a1-6)]Man(b1-4)GlcNAc(b1-4)GlcNAc
# Method in brief: as §1
# [26] = target: GlcNAc(b1-2)[GlcNAc(b1-4)]Man(a1-3)[GlcNAc(b1-4)][GlcNAc(b1-2)[GlcNAc(b1-6)]Man(a1-6)]Man(b1-4)GlcNAc(b1-4)GlcNAc
# Method in brief: as §1
# [27] = target: GlcNAc(b1-2)[GlcNAc(b1-6)]Man(a1-6)[GlcNAc(b1-2)Man(a1-3)]Man(b1-4)GlcNAc(b1-4)GlcNAc
# Method in brief: as §1
# [28] = target: GlcNAc(b1-2)[GlcNAc(b1-6)]Man(a1-6)[GlcNAc(b1-2)Man(a1-3)][GlcNAc(b1-4)]Man(b1-4)GlcNAc(b1-4)GlcNAc
# Method in brief: as §1
# [29] = target: GlcNAc(b1-3)Gal
# Method in brief: as §1
# [30] = target: GlcNAc(b1-3)Gal(b1-3)GalNAc
# Method in brief: as §1
# [31] = target: GlcNAc(b1-3)Gal(b1-4)Glc
# Method in brief: as §1
# [32] = target: GlcNAc(b1-3)Gal(b1-4)GlcNAc
# Method in brief: as §1
# [33] = target: GlcNAc(b1-3)Gal(b1-4)GlcNAc(b1-3)Gal(b1-4)GlcNAc
# Method in brief: as §1
# [34] = target: GlcNAc(b1-3)GalNAc
# Method in brief: as §1
# [35] = target: GlcNAc(b1-3)Man
# Method in brief: as §1
# [36] = target: GlcNAc(b1-3)[GlcNAc(b1-4)][GlcNAc(b1-6)]GlcNAc
# Method in brief: as §1
# [37] = target: GlcNAc(b1-3)[GlcNAc(b1-6)]Gal(b1-4)GlcNAc
# Method in brief: as §1
# [38] = target: GlcNAc(b1-3)[GlcNAc(b1-6)]GalNAc
# Method in brief: as §1
# [39] = target: GlcNAc(b1-4)Gal(b1-4)GlcNAc
# Method in brief: as §1
# [40] = target: GlcNAc(b1-4)GlcNAc
# Method in brief: as §1
# [41] = target: GlcNAc(b1-4)GlcNAc(b1-4)GlcNAc
# Method in brief: as §1
# [42] = target: GlcNAc(b1-4)GlcNAc(b1-4)GlcNAc(b1-4)GlcNAc(b1-4)GlcNAc
# Method in brief: as §1
# [43] = target: GlcNAc(b1-4)GlcNAc(b1-4)GlcNAc(b1-4)GlcNAc(b1-4)GlcNAc(b1-4)GlcNAc
# Method in brief: as §1
# [44] = target: GlcNAc(b1-4)[GlcNAc(b1-6)]GalNAc
# Method in brief: as §1
# [45] = target: GlcNAc(b1-6)Gal(b1-4)GlcNAc
# Method in brief: as §1
binder,measurement,setting,value
"Flo11 (Saccharomyces cerevisiae), P08640 (protein) MQRPFLLAYLVLSLLFNSALGFPTALVPRGSSEGTSCNSIVNGCPNLDFNWHMDQQNIMQYTLDVTSVSWVQDNTYQITIHVKGKENIDLKYLWSLKIIGVTGPKGTVQLYGYNENTYLIDNPTDFTATFEVYATQDVNSCQVWMPNFQIQFEYLQGSAAQYASSWQWGTTSFDLSTGCNNYDNQGHSQTDFPGFYWNIDCDNNCGGTKSSTTTSSTSESSTTTSSTSESSTTTSSTSESSTTTSSTSESSTSSSTTAPATPTTTSCTKEKPTPPTTTSCTKEKPTPPHHDTTPCTKKKTTTSKTCTKKTTTPVPTPSSSTTESSSAPVPTPSSSTTESSSAPVTSSTTESSSAPVPTPSSSTTESSSAPVTSSTTESSSAPVTSSTTESSSAPVPTPSSSTTESSSAPVTSSTTESSSAPVTSSTTESSSAPVTSSTTESSSAPVTSSTTESSSAPVPTPSSSTTESSSAPVTSSTTESSSAPVPTPSSSTTESSSAPVTSSTTESSSAPVPTPSSSTTESSSAPAPTPSSSTTESSSAPVTSSTTESSSAPVPTPSSSTTESSSTPVTSSTTESSSAPVPTPSSSTTESSSAPVPTPSSSTTESSSAPAPTPSSSTTESSSAPVTSSTTESSSAPVPTPSSSTTESSSAPVPTPSSSTTESSSAPVPTPSSSTTESSSAPVTSSTTESSSAPVTSSTTESSSAPVPTPSSSTTESSSAPVPTPSSSTTESSSAPVPTPSSSTTESSSAPVTSSTTESSSAPVPTPSSSTTESSSAPVPTPSSSTTESSSAPVPTPSSSTTESSVAPVPTPSSSSNITSSAPSSTPFSSSTESSSVPVPTPSSSTTESSSAPVSSSTTESSVAPVPTPSSSSNITSSAPSSIPFSSTTESFSTGTTVTPSSSKYPGSQTETSVSSTTETTIVPTKTTTSVTTPSTTTITTTVCSTGTNSAGETTSGCSPKTVTTTVPTTTTTSVTTSSTTTITTTVCSTGTNSAGETTSGCSPKTITTTVPCSTSPSETASESTTTSPTTPVTTVVSTTVVTTEYSTSTKPGGEITTTFVTKNIPTTYLTTIAPTPSVTTVTNFTPTTITTTVCSTGTNSAGETTSGCSPKTVTTTVPCSTGTGEYTTEATTLVTTAVTTTVVTTESSTGTNSAGKTTTGYTTKSVPTTYVTTLAPSAPVTPATNAVPTTITTTECSAATNAAGETTSVCSAKTIVSSASAGENTAPSATTPVTTAIPTTVITTESSVGTNSAGETTTGYTTKSIPTTYITTLIPGSNGAKNYETVATATNPISIKTTSQLATTASASSVAPVVTSPSLTGPLQSASGSAVATYSVPSISSTYQGAANIKVLGNFMWLLLALPVVF",glycan array binding signal (z-score),[1],-1.03
same,glycan array binding signal (z-score),[2],-0.868
same,glycan array binding signal (z-score),[3],0.7
same,glycan array binding signal (z-score),[4],0.761
same,glycan array binding signal (z-score),[5],-0.394
same,glycan array binding signal (z-score),[6],-0.613
same,glycan array binding signal (z-score),[7],-1.13
same,glycan array binding signal (z-score),[8],0.135
same,glycan array binding signal (z-score),[9],-0.751
same,glycan array binding signal (z-score),[10],-0.723
same,glycan array binding signal (z-score),[11],0.274
same,glycan array binding signal (z-score),[12],0.653
same,glycan array binding signal (z-score),[13],-0.216
same,glycan array binding signal (z-score),[14],-0.057
same,glycan array binding signal (z-score),[15],0.685
same,glycan array binding signal (z-score),[16],6.8
same,glycan array binding signal (z-score),[17],0.576
same,glycan array binding signal (z-score),[18],3.01
same,glycan array binding signal (z-score),[19],-0.397
same,glycan array binding signal (z-score),[20],0.689
same,glycan array binding signal (z-score),[21],1.46
same,glycan array binding signal (z-score),[22],3.49
same,glycan array binding signal (z-score),[23],-0.197
same,glycan array binding signal (z-score),[24],-0.017
same,glycan array binding signal (z-score),[25],-0.119
same,glycan array binding signal (z-score),[26],0.283
same,glycan array binding signal (z-score),[27],0.744
same,glycan array binding signal (z-score),[28],0.541
same,glycan array binding signal (z-score),[29],-1.25
same,glycan array binding signal (z-score),[30],1.09
same,glycan array binding signal (z-score),[31],-1.46
same,glycan array binding signal (z-score),[32],0.267
same,glycan array binding signal (z-score),[33],0.303
same,glycan array binding signal (z-score),[34],0.245
same,glycan array binding signal (z-score),[35],0.315
same,glycan array binding signal (z-score),[36],0.096
same,glycan array binding signal (z-score),[37],-0.167
same,glycan array binding signal (z-score),[38],-0.35
same,glycan array binding signal (z-score),[39],-0.74
same,glycan array binding signal (z-score),[40],-0.781
same,glycan array binding signal (z-score),[41],-0.791
same,glycan array binding signal (z-score),[42],-0.764
same,glycan array binding signal (z-score),[43],-0.436
same,glycan array binding signal (z-score),[44],0.51
same,glycan array binding signal (z-score),[45],0.507

# Two entries from above, bar-delimited.
binder | measurement | setting | value
Flo11 (Saccharomyces cerevisiae), P08640 (protein) MQRPFLLAYLVLSLLFNSALGFPTALVPRGSSEGTSCNSIVNGCPNLDFNWHMDQQNIMQYTLDVTSVSWVQDNTYQITIHVKGKENIDLKYLWSLKIIGVTGPKGTVQLYGYNENTYLIDNPTDFTATFEVYATQDVNSCQVWMPNFQIQFEYLQGSAAQYASSWQWGTTSFDLSTGCNNYDNQGHSQTDFPGFYWNIDCDNNCGGTKSSTTTSSTSESSTTTSSTSESSTTTSSTSESSTTTSSTSESSTSSSTTAPATPTTTSCTKEKPTPPTTTSCTKEKPTPPHHDTTPCTKKKTTTSKTCTKKTTTPVPTPSSSTTESSSAPVPTPSSSTTESSSAPVTSSTTESSSAPVPTPSSSTTESSSAPVTSSTTESSSAPVTSSTTESSSAPVPTPSSSTTESSSAPVTSSTTESSSAPVTSSTTESSSAPVTSSTTESSSAPVTSSTTESSSAPVPTPSSSTTESSSAPVTSSTTESSSAPVPTPSSSTTESSSAPVTSSTTESSSAPVPTPSSSTTESSSAPAPTPSSSTTESSSAPVTSSTTESSSAPVPTPSSSTTESSSTPVTSSTTESSSAPVPTPSSSTTESSSAPVPTPSSSTTESSSAPAPTPSSSTTESSSAPVTSSTTESSSAPVPTPSSSTTESSSAPVPTPSSSTTESSSAPVPTPSSSTTESSSAPVTSSTTESSSAPVTSSTTESSSAPVPTPSSSTTESSSAPVPTPSSSTTESSSAPVPTPSSSTTESSSAPVTSSTTESSSAPVPTPSSSTTESSSAPVPTPSSSTTESSSAPVPTPSSSTTESSVAPVPTPSSSSNITSSAPSSTPFSSSTESSSVPVPTPSSSTTESSSAPVSSSTTESSVAPVPTPSSSSNITSSAPSSIPFSSTTESFSTGTTVTPSSSKYPGSQTETSVSSTTETTIVPTKTTTSVTTPSTTTITTTVCSTGTNSAGETTSGCSPKTVTTTVPTTTTTSVTTSSTTTITTTVCSTGTNSAGETTSGCSPKTITTTVPCSTSPSETASESTTTSPTTPVTTVVSTTVVTTEYSTSTKPGGEITTTFVTKNIPTTYLTTIAPTPSVTTVTNFTPTTITTTVCSTGTNSAGETTSGCSPKTVTTTVPCSTGTGEYTTEATTLVTTAVTTTVVTTESSTGTNSAGKTTTGYTTKSVPTTYVTTLAPSAPVTPATNAVPTTITTTECSAATNAAGETTSVCSAKTIVSSASAGENTAPSATTPVTTAIPTTVITTESSVGTNSAGETTTGYTTKSIPTTYITTLIPGSNGAKNYETVATATNPISIKTTSQLATTASASSVAPVVTSPSLTGPLQSASGSAVATYSVPSISSTYQGAANIKVLGNFMWLLLALPVVF | glycan array binding signal (z-score) | [9] | -0.751
same | glycan array binding signal (z-score) | [36] | 0.096
